The other results are listed elsewhere or left out.
Legend:
Test in all cases: log2 fold change, soluble protein after heating vs DMSO (PISA); higher = thermal stabilisation; K562 lysate, 10 uM; active = over 0.2 and 3.5 SD of the protein, either way, in both replicates (recomputed)
[1] = compound: CS(=O)(=O)N1CCN(Cc2cc3nc(-c4cccc5[nH]ncc45)nc(N4CCOCC4)c3s2)CC1 [pictilisib]
In short: (§1)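 Dounce homogenisation of K562 pellets in PBS pH 7.4 with 1 mM MgCl2 produced a crude extract, used at 1 mg/mL protein. Exposure to 10 μM compound lasted 30 min, and aliquots were then heated for 3 min across 48°C-58°C, pooled and brought to 0.5% NP-40 at 4°C. The supernatant after 21,000xg for 90 min was quantified by TMTpro 16plex LC-MS/MS with channel sums equalised. Duplicate values are given as log-two fold change in thermal stability relative to solvent controls.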

Amino acid sequences for entries named in this document (tags omitted). A change or cut given only in a name is not applied to a line headed by its entry.
UniProt Q8N680: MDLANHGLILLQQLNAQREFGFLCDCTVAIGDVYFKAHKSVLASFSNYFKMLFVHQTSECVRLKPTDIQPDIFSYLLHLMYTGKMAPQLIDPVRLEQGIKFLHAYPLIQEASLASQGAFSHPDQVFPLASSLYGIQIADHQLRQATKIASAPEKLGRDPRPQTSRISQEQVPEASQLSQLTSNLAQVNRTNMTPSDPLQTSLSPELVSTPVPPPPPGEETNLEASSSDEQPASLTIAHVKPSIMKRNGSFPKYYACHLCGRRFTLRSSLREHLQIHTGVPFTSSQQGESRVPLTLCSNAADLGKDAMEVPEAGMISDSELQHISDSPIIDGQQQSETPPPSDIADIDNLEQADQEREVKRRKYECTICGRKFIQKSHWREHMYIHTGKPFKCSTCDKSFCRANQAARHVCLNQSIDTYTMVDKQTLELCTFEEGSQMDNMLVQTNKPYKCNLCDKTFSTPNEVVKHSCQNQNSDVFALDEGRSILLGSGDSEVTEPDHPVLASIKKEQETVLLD
UniProt Q8TBK6: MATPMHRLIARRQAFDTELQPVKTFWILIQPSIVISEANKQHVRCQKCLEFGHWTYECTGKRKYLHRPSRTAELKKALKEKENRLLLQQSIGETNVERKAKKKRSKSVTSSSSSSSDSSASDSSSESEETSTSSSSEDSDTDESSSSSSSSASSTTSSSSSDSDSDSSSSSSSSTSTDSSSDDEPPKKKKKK
UniProt Q8TCF1: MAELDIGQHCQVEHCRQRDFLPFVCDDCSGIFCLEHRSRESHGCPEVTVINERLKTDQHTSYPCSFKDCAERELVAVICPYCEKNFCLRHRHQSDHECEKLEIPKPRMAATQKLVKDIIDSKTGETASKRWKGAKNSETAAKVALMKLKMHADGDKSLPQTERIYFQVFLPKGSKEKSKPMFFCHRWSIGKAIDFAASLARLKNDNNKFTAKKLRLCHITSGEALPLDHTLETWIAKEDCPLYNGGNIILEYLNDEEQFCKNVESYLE
UniProt Q9H869: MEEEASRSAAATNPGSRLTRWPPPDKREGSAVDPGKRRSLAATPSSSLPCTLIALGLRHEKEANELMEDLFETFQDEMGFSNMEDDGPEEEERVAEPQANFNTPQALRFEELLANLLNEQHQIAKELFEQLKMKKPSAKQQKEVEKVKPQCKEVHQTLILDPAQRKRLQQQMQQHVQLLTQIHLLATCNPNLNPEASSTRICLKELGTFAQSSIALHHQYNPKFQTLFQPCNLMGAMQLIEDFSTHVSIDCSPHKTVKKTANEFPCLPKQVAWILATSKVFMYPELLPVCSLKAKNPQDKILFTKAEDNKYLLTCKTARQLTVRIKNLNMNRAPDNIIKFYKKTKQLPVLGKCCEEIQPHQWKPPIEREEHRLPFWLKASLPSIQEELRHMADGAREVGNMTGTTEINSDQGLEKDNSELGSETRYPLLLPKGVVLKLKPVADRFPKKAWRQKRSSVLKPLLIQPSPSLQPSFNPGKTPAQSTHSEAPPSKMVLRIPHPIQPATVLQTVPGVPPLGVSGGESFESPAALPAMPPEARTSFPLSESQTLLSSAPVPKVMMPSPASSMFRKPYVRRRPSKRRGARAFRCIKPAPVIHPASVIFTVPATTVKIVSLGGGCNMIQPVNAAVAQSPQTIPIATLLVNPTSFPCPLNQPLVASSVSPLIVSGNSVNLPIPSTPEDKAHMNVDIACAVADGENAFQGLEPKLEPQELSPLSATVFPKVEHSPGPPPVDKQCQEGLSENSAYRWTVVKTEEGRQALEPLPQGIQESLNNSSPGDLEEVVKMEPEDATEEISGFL
UniProt Q96GR4: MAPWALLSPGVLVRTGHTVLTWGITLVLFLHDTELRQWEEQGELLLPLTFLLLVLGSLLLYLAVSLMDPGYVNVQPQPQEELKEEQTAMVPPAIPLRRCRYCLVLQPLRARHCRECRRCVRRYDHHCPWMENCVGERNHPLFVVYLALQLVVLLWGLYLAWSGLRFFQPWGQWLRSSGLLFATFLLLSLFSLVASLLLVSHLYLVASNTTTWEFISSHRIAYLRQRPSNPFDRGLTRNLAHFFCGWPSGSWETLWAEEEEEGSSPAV
UniProt O15156: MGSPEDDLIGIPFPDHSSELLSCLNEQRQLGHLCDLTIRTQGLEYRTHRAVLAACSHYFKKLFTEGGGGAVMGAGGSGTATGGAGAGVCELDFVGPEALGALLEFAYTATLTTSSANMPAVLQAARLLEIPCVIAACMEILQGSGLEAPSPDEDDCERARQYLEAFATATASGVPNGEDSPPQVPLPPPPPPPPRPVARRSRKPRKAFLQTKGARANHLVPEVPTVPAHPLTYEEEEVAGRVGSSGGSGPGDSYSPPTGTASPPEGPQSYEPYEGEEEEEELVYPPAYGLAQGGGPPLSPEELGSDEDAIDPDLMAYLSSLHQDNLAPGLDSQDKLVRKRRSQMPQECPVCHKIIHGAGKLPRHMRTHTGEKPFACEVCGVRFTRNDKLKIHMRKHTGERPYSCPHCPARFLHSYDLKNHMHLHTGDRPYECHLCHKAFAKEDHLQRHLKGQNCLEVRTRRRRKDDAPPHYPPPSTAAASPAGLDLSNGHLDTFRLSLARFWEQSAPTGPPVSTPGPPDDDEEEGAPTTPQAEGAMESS
UniProt Q5TC79: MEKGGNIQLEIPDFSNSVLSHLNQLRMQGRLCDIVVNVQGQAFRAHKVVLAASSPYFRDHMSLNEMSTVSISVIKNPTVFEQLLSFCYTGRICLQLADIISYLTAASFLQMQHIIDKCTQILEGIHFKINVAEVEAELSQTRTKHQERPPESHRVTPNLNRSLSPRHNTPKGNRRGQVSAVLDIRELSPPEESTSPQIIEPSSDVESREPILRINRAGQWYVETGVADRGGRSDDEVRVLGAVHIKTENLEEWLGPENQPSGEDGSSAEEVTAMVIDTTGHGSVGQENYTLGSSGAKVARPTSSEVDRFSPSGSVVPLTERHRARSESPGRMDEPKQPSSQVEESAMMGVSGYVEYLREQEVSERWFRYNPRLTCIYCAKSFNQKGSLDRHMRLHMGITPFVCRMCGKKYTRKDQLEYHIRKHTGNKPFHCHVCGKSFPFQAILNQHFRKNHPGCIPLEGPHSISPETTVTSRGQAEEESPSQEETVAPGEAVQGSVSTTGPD
UniProt Q9BWQ6: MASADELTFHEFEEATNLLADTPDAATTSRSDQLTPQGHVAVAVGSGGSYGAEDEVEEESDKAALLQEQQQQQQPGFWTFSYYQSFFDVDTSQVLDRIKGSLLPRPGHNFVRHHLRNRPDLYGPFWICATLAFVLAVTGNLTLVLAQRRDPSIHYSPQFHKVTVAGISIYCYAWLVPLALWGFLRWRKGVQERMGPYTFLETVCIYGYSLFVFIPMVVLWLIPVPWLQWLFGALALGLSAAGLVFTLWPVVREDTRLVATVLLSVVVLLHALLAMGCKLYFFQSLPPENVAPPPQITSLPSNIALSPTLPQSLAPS
UniProt Q96K80: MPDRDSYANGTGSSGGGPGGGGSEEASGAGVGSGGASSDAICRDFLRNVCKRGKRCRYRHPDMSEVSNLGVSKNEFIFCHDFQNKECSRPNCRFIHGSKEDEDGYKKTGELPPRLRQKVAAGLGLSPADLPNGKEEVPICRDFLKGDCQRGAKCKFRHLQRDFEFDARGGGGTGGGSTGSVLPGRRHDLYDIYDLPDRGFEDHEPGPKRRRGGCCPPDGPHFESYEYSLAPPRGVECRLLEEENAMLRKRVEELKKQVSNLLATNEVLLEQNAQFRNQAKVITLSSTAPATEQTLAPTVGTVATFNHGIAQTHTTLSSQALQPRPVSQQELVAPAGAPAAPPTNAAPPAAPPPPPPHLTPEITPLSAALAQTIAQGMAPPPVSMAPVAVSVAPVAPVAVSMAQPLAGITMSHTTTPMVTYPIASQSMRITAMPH
UniProt Q8IXZ2: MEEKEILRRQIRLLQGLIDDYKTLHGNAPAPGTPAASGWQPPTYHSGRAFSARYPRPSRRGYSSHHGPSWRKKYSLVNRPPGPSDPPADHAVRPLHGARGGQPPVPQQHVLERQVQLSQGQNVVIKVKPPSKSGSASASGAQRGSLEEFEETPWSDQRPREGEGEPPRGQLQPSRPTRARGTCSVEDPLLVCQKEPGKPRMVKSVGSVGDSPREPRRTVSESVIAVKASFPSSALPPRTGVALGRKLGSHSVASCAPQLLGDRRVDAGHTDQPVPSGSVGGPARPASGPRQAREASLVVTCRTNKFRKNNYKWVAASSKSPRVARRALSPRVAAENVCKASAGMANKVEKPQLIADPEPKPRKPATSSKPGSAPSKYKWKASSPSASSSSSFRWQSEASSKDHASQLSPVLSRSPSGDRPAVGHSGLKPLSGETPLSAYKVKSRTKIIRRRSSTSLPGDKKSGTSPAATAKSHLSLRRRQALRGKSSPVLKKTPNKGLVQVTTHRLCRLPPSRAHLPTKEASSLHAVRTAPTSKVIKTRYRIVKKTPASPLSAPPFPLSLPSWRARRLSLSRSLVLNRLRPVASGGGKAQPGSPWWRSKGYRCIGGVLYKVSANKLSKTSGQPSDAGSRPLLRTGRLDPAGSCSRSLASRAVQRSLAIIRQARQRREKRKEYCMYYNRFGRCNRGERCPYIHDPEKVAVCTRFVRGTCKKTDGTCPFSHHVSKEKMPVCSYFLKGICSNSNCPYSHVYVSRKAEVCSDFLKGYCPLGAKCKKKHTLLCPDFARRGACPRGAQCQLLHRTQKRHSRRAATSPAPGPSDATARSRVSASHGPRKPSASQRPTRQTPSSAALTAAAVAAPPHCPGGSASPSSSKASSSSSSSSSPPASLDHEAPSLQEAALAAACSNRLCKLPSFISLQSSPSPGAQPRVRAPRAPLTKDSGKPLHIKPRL
UniProt C9J5V9: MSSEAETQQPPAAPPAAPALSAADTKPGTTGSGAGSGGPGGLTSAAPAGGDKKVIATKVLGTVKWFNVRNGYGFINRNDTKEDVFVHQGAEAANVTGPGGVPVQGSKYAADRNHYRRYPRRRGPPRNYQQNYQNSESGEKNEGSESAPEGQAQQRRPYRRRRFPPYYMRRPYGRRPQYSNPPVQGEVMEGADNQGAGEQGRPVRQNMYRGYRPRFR
UniProt Q9Y2T7, whole entry, looked up: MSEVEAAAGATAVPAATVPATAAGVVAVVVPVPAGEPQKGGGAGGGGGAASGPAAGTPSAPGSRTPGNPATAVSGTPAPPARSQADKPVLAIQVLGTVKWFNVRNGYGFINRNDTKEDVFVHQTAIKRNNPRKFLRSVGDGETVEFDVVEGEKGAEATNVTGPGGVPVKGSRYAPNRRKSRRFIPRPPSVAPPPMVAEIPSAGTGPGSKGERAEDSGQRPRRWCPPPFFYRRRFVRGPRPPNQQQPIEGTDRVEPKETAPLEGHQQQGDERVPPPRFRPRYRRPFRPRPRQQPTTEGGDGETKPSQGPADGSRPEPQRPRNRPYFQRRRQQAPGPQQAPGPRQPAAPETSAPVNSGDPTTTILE
UniProt O43543: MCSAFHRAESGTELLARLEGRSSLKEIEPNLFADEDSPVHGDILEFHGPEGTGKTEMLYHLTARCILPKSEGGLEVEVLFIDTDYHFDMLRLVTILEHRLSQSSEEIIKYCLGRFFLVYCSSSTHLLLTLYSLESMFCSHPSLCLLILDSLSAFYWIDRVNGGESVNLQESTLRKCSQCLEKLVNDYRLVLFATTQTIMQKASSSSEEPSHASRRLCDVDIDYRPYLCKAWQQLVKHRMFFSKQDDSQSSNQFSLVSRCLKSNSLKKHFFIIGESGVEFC
UniProt Q9NRH1: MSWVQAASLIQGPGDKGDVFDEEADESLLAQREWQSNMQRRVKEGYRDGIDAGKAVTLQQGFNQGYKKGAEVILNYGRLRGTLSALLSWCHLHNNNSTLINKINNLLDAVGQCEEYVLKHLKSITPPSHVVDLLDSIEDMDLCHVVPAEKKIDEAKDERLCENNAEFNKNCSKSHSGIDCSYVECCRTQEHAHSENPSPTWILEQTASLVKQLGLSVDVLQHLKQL
UniProt Q8NCP5: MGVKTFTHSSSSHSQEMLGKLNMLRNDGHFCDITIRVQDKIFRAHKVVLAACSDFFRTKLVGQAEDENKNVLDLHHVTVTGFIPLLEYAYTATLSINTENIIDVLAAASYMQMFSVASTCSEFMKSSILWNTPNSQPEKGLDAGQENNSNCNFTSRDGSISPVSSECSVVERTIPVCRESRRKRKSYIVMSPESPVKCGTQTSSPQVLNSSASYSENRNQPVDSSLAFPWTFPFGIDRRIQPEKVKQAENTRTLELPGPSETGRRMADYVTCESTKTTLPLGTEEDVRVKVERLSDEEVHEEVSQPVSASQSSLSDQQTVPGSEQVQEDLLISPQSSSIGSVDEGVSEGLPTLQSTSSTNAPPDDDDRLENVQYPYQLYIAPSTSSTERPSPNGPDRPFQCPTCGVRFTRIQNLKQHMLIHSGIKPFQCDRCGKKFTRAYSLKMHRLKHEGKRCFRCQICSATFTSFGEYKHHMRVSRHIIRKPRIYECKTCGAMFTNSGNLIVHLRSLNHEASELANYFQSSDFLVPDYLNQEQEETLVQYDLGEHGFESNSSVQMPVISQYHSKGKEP
UniProt P58557: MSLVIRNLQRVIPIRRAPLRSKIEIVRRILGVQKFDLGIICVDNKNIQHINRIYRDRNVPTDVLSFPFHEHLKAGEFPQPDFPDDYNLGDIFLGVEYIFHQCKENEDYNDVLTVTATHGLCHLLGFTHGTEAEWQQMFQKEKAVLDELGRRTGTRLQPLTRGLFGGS

[2] = compound: C[C@@H](Oc1cc(-c2cnn(C3CCNCC3)c2)cnc1N)c1c(Cl)ccc(F)c1Cl [crizotinib]
In short: as §1

[3] = compound: C[C@H](C1=CC=C(C=C1)C(=O)NC2=C3C=CNC3=NC=C2)N
In short: as §1

[4] = compound: C[C@H](Nc1ncnc2nc[nH]c12)c1cc2cccc(Cl)c2c(=O)n1-c1ccccc1 [duvelisib]
In short: as §1

[5] = compound: Cc1cc(Nc2cc(CN3CCOCC3)c3nc(C)c(Cc4ccc(Cl)cc4F)n3n2)n[nH]1 [gandotinib]
In short: as §1

[6] = compound: Cc1cc(Nc2cc(N3CCN(C)CC3)nc(Sc3ccc(NC(=O)C4CC4)cc3)n2)n[nH]1 [tozasertib]
In short: as §1

[7] = compound: Cc1ccc(-n2nc(C(C)(C)C)cc2NC(=O)Nc2ccc(OCCN3CCOCC3)c3ccccc23)cc1 [doramapimod]
In short: as §1

[8] = compound: Cc1ccc(NC(=O)c2ccc(CN3CC[C@H](N(C)C)C3)c(C(F)(F)F)c2)cc1Nc1nccc(-c2cncnc2)n1 [bafetinib]
In short: as §1

[9] = compound: Cc1cccc(CC(=O)N2CCc3c2ccc(-c2cn(C)c4ncnc(N)c24)c3F)n1
In short: as §1

[10] = compound: CS(=O)(=O)CCNCc1ccc(-c2ccc3ncnc(Nc4ccc(OCc5cccc(F)c5)c(Cl)c4)c3c2)o1 [lapatinib]
In short: as §1

Measured: log2 fold change

ZBTB2 (UniProt Q8N680)
inactive: [1] -0.213 | [2] 0.039 | [3] 0.118 | [4] 0.013 | [5] 0.001 | [6] -0.005 | [7] -0.028 | [8] -0.22 | [9] -0.113

ZBTB5 (UniProt O15062)
inactive: [2] 0.031 | [4] 0.003 | [6] -0.144 | [7] 0.07

ZCCHC10 (UniProt Q8TBK6)
inactive: [1] -0.078 | [2] 0.041 | [4] -0.125 | [6] 0.013 | [7] 0.003 | [8] 0.084

ZFAND1 (UniProt Q8TCF1)
inactive: [1] 0.028 | [2] 0.036 | [3] 0.412 | [4] -0.095 | [5] -0.205 | [6] -0.072 | [7] 0.026 | [8] -0.15 | [9] -0.316

ZDHHC13 (UniProt Q8IUH4)
inactive: [1] 0.041 | [3] 0.038 | [4] -0.12 | [5] 0.09 | [8] -0.074 | [9] 0.01

XRCC3 (UniProt O43542)
inactive: [1] -0.164 | [2] 0 | [3] 0.036 | [4] -0.004 | [5] 0.005 | [7] 0.013 | [8] -0.024 | [9] 0.071

ZCCHC7 (UniProt Q8N3Z6)
inactive: [2] -0.045 | [4] 0.054 | [7] -0.073

ZBTB43 (UniProt O43298)
inactive: [10] 0.057 | [2] 0.046 | [4] 0.011 | [6] 0.015 | [7] -0.03

ZBTB39 (UniProt O15060)
inactive: [4] -0.094

ZC3H14 isoform 11 (UniProt Q6PJT7)
inactive: [2] -0.022 | [7] 0.05

YY1AP1 isoform 9 (UniProt Q9H869)
inactive: [2] -0.009 | [3] 0.316 | [4] 0.042 | [5] -0.087 | [6] 0.065 | [7] -0.06 | [9] -0.196

ZDHHC12 isoform 3 (UniProt Q96GR4)
inactive: [2] -0.066 | [7] 0.035

ZBTB7B isoform 2 (UniProt O15156)
inactive: [1] -0.386 | [2] -0.114 | [4] -0.027 | [7] 0.018 | [8] 0.019

ZFPM2 (UniProt Q8WW38)
inactive: [1] -0.398 | [2] -0.228 | [3] 0.033 | [4] 0.019 | [5] -0.225 | [6] -0.1 | [7] 0.118 | [8] -0.094 | [9] -0.034

ZBTB37 (UniProt Q5TC79)
inactive: [2] -0.03 | [7] 0

XRCC1 (UniProt F5H8D7)
inactive: [1] 0.007 | [4] -0.088 | [6] 0.072 | [8] -0.128

ZBED6 (UniProt P86452)
inactive: [10] -0.01 | [4] -0.053

ZDHHC8 isoform 3 (UniProt Q9ULC8)
inactive: [3] -0.2 | [5] 0.27 | [9] 0.209

YIPF2 (UniProt Q9BWQ6)
inactive: [2] 0.076 | [3] 0.18 | [5] 0.063 | [7] -0.037 | [9] 0.021

ZC3H10 (UniProt Q96K80)
inactive: [1] -0.038 | [2] -0.152 | [4] 0.078 | [7] 0.231 | [8] -0.007

ZC3H3 (UniProt Q8IXZ2)
inactive: [10] -0.035 | [3] -0.039 | [5] 0.018 | [9] 0.055

ZFP92 (UniProt A6NM28)
inactive: [6] -0.058

ZC4H2 (UniProt Q9NQZ6)
inactive: [2] 0.065 | [7] -0.054

ZDHHC2 (UniProt Q9UIJ5)
inactive: [10] 0.048 | [2] -0.236 | [3] -0.009 | [5] 0 | [6] 0.145 | [7] -0.001 | [9] 0.071

YBX1 (UniProt C9J5V9)
inactive: [2] -0.114 | [3] -0.081 | [5] 0.023 | [7] 0.097 | [9] 0.074

YBX2 (UniProt Q9Y2T7)
inactive: [1] -0.338 | [8] -0.03

XRCC2 (UniProt O43543)
inactive: [1] -0.072 | [2] 0.044 | [3] -0.001 | [4] 0.14 | [5] -0.171 | [7] 0.007 | [8] 0.045 | [9] 0.03

Quoted at random: 3 records from the list
YBX1 (UniProt C9J5V9)
inactive: [2] -0.114 | [3] -0.081 | [5] 0.023 | [7] 0.097 | [9] 0.074

ZFP92 (UniProt A6NM28)
inactive: [6] -0.058

ZDHHC2 (UniProt Q9UIJ5)
inactive: [10] 0.048 | [2] -0.236 | [3] -0.009 | [5] 0 | [6] 0.145 | [7] -0.001 | [9] 0.071

The listing continues:

ZFP36L2 (UniProt P47974)
inactive: [1] -0.085 | [2] 0.003 | [3] 0.014 | [4] 0.229 | [5] 0.069 | [6] -0.123 | [7] -0.048 | [8] -0.154 | [9] 0.276

ZBTB48 (UniProt P10074)
inactive: [4] -0.029

YAE1 (UniProt Q9NRH1)
inactive: [1] -0.029 | [2] 0.02 | [3] -0.034 | [4] -0.014 | [5] -0.005 | [6] -0.048 | [7] -0.036 | [8] -0.122 | [9] 0.003

ZBTB44 (UniProt Q8NCP5)
inactive: [2] -0.133 | [7] 0.036

ZFX isoform 3 (UniProt P17010)
inactive: [10] -0.01 | [2] 0.082 | [4] 0.124 | [7] 0.102

ZBTB11 (UniProt O95625)
inactive: [10] 0.211 | [2] -0.021 | [3] -0.074 | [5] 0.05 | [7] -0.087 | [9] 0.054

YBEY (UniProt P58557)
inactive: [4] 0.049 | [6] 0.035

— the supplement of paper PMC10849652
